Part of at least one peptide drawing is inferred or uncertain, most often the ends.
What was measured:
[1] = system: STAT3 signaling; experiment: Luciferase reporter assay (Mercury JAK-STAT Pathway Profiling system, GAS or STAT3 elements) in MCF-7 cells; assay type: cell-based, human; parameters: concentration or dose not given beside the values; settings: luciferase reporter with GAS or STAT3 elements, basal expression, within one hour after treatment
Method: Selected peptides were tested for inhibition of STAT3 signaling in breast cancer cell lines by luciferase reporter assay. The assay employed the Mercury JAK-STAT Pathway Profiling system (Clontech), which includes the enhancer elements GAS (interferon-γ activating sequence) or STAT3 (a modified GAS sequence) introduced as three tandem copies upstream of the TA promoter in a luciferase reporter vector. STAT3 helix 2 analogs reduced basal expression of the reporter construct containing the GAS, or STAT3 elements in MCF-7 cells within one hour after treatment.

By UniProt entry, the sequences of proteins in these tests, tags left out.
UniProt P40763, whole entry: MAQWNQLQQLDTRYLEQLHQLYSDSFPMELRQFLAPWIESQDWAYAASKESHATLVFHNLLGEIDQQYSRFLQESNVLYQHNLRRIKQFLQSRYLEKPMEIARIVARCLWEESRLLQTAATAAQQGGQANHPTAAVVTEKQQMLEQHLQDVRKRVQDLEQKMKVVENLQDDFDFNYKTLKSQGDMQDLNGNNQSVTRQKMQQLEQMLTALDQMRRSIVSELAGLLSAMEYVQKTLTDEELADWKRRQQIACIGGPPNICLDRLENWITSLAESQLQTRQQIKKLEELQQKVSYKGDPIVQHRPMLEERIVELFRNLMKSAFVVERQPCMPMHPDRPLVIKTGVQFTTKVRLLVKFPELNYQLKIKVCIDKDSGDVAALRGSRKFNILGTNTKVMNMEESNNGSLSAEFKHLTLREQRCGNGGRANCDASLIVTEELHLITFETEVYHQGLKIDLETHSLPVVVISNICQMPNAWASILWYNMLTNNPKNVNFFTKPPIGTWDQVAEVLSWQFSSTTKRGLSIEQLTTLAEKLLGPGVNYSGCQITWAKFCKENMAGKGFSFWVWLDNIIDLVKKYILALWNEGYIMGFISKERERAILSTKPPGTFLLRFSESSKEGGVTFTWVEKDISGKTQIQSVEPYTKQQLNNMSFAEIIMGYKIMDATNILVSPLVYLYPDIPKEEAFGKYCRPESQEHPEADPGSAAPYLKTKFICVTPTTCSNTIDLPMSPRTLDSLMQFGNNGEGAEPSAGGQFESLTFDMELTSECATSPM

[2] = system: MCF7 breast cancer cells; experiment: MTT assay of growth inhibition / cytotoxicity in MCF7 cells; assay type: cell-based, human; settings: 5 μM, MTT assay 48 hours after exposure
Method: Activity was determined by MTT assay 48 hours after exposure of the MCF7 cells to the test compounds.
Peptides were constructed based on variations of the amino acid sequence of the second helix of STAT1 and STAT5a. ε-palmitoyl lysine was substituted for penetratin as a cell-penetrating motif Several residues of penetratin sequence were preserved in the lipopeptide derivatives, which served as a linking sequence. The peptides and peptidomimetics were tested for growth inhibitory and cytotoxic activity in MCF7 cells using an MTT assay as described in Example 2.
Retro-inverso peptide analogues were prepared comprising variants of the sequence of helix 2 of STAT3. STAT3-Hel2A-2 (see Example 3) was used as a starting sequence, in which all but three residues of the original penetratin sequence was replaced with palmitic acid. The variants were produced by systematically truncating and substituting the base sequence. The compounds were used to treat MCF7 breast cancer cells. IC50 values were determined 48 hours after exposing the cells to the test compounds.

[3] = system: T47D breast cancer cells; experiment: MTT assay of cell proliferation and cell death, T47D; assay type: cell-based; settings: escalating doses
[4] = system: MDA-MB-231 cells; experiment: Mitochondrial membrane potential (MITOTRACKER Red CMXRos), MDA-MB-231; assay type: cell-based, human
[5] = system: MDA-MB-435 breast cancer cells; experiment: MTT assay of cell proliferation and cell death, MDA-MB-435; assay type: cell-based; settings: MDA-MB-435, escalating doses
[6] = system: STAT1-dependent transcription (ISRE reporter); experiment: ISRE luciferase reporter in MCF-7 cells activated by IFN-γ; assay type: cell-based, human; settings: IFN-γ-stimulated
Text: (§1) To evaluate effects of inhibitors on cytokine-activated transcription, luciferase reporter vectors APRE and ISRE were employed (Takeda et al., J. Endocrinol. 159, 323-330 (1998); Ivanova et al., J. Mol. Biol. 340, 641-653 (2004)). APRE was activated in MCF-7 cells by LIF.

[7] = biological target: T1, STAT3 (Homo sapiens, UniProt P40763); experiment: STAT3 tyrosine phosphorylation and expression in cytokine-treated breast cancer cells; assay type: cell-based; settings: pretreatment 1 hour
T1 construct: endogenous in cells; host or cells: MCF-7 and MDA-MB-231
Method: (§2) MCF-7 and MDA-MB-231 cells were treated with Leukemia Inhibitory Factor (LIF) to activate STAT3 and with Interferon gamma (IFN-γ) to activate STAT1 signaling. In MCF-7 cells, LIF induced selective STAT3 tyrosine phosphorylation and IFN-γ induced selective STAT1 tyrosine phosphorylation. In MDA-MB-231 cells, however, each cytokine induced both STAT3 and STAT1 tyrosine phosphorylation.

[8] = biological target: T2, eGFP-STAT1 (Homo sapiens, UniProt P42224); experiment: FRET in living cells expressing eGFP-STAT1; assay type: binding; settings: rhodamine-labeled peptide
T2 construct: expressed in transfected cells
T2 sequence (P42224 1-750): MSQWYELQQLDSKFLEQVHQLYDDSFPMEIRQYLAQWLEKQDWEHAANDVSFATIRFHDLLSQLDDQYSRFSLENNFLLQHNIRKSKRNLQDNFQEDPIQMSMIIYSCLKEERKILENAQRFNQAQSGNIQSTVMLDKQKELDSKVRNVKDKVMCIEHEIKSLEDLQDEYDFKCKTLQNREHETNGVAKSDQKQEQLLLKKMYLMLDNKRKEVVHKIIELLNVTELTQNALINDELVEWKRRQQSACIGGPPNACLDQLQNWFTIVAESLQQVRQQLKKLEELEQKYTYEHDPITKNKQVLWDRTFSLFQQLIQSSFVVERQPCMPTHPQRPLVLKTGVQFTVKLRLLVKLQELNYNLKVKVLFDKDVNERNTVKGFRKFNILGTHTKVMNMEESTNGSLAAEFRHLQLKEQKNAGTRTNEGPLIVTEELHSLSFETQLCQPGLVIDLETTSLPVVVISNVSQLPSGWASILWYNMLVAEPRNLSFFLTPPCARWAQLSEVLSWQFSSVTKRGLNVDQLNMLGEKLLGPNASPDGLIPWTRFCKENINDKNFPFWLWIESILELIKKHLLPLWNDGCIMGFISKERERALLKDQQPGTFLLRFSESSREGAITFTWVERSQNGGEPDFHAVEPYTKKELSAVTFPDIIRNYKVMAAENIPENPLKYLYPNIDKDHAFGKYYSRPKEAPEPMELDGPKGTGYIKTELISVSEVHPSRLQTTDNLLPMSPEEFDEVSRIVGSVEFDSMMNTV

[9] = system: MCF-7 cells; experiment: Mitochondrial membrane potential (MITOTRACKER Red CMXRos), MCF-7; assay type: cell-based, human
[10] = system: MDA-MB-231 breast cancer cells; experiment: MTT assay of cell proliferation and cell death, MDA-MB-231; assay type: cell-based, human; settings: MDA-MB-231, escalating doses
[11] = system: Poly (ADP-ribose) polymerase (PARP) cleavage; experiment: PARP cleavage in MDA-MB-231 cells; assay type: cell-based, human; settings: MDA-MB-231, 8 hours of treatment
[12] = system: STAT3-dependent transcription (APRE reporter); experiment: APRE luciferase reporter in MCF-7 cells activated by LIF; assay type: cell-based, human; settings: basal and LIF-stimulated
Text: as §1

[13] = biological target: T3, eGFP (Aequorea victoria, UniProt P42212, F64L/H231L/S65T); experiment: FRET in living cells expressing eGFP; assay type: binding; settings: rhodamine-labeled peptide
T3 construct: expressed in transfected cells

[14] = system: MDA-MB-231 cells; experiment: Annexin V binding by flow cytometry, MDA-MB-231; assay type: cell-based, human; settings: 5 μM, 2 hours
[15] = system: MCF-7 cells; experiment: Annexin V binding by flow cytometry, MCF-7; assay type: cell-based, human; settings: 5 μM, 2 hours
[16] = biological target: T4, STAT1 (Homo sapiens, UniProt P42224); experiment: STAT1 tyrosine phosphorylation and expression in cytokine-treated breast cancer cells; assay type: cell-based; settings: pretreatment 1 hour
T4 construct: endogenous in cells; host or cells: MCF-7 and MDA-MB-231
T4 sequence (P42224 1-750): T2 sequence (P42224 1-750)
Method: as §2

[17] = biological target: T5, STAT3 tagged with eGFP (eGFP-STAT3) (Homo sapiens, UniProt P40763); experiment: FRET in living cells expressing eGFP-STAT3; assay type: binding; settings: rhodamine-labeled peptide
T5 construct: expressed in transfected cells; host or cells: HEK293
Method: Fluorescence Resonance Energy Transfer (FRET) method was used to determine whether STAT3-HEL2A-2 (see Example 3) interacts with STAT3 in living cells. HEK293 cells stably expressing STAT3 tagged with eGFP on its N-terminus (eGFP-STAT3) were treated for one hour with 5 μM of STAT3-HEL2A-2 labeled with rhodamine. An additional cysteine residue was positioned at the C-terminus of penetratin to facilitate labeling. Excitation of eGFP (donor) was facilitated using a 488-nm light source, and the emission spectrum was detected. In the absence of energy transfer between eGFP and rhodamine, excitation of eGFP would lead to an emission peak at 520-540 nm, whereas energy transfer from eGFP to an adjacent rhodamine fluorochrome acceptor would cause an emission in the 560-600 nm range. […] The photobleaching of rhodamine restored the fluorescence of eGFP.
Cells expressing eGFP-STAT3, eGFP-STAT1, or eGFP were treated with rhodamine-labeled STAT3-HEL2A-2 (see Example 6). Excitation of eGFP was facilitated, and the emission spectrum detected, in accordance with the methods described in Example 6. FRET efficiency was calculated using equation 1-D0/D1, where D0 is fluorescence intensity of eGFP before rhodamine photobleaching and D1 is the intensity after rhodamine photobleaching.

[18] = MCF-7 and MDA-MB-231 cells treated with LIF or IFN-γ

CCCC[C@H](NC(=O)[C@H](CCCNC(=N)N)NC(=O)[C@H](CCCNC(=N)N)NC(=O)[C@H](CC(N)=O)NC(=O)[C@@H]1CCCN1C(=O)[C@H](Cc1ccccc1)NC(=O)[C@H](Cc1c[nH]c2ccccc12)NC(=O)[C@@H](NC(=O)[C@H](CCCCN)NC(=O)[C@@H](NC(=O)[C@H](CCC(N)=O)NC(=O)[C@H](CCCNC(=N)N)NC(=O)[C@H](Cc1ccc(O)cc1)NC(=O)[C@H](CC(C)C)NC(=O)[C@H](CCCCN)NC(=O)[C@H](Cc1c[nH]cn1)NC(=O)[C@H](CC(C)C)NC(=O)[C@H](CCC(N)=O)NC(=O)[C@H](CCC(=O)O)NC(=O)[C@H](CC(C)C)NC(=O)[C@H](Cc1ccc(O)cc1)NC(=O)[C@H](CCCNC(=N)N)NC(=O)[C@@H](NC(=O)[C@H](CC(=O)O)NC(=O)[C@@H](N)CC(C)C)[C@@H](C)O)[C@@H](C)CC)[C@@H](C)CC)C(=O)N[C@@H](CCCCN)C(=O)N[C@@H](Cc1c[nH]c2ccccc12)C(=O)N[C@@H](CCCCN)C(=O)N[C@@H](CCCCN)C(N)=O [Hel2A-2-Pen]
Activity, % of control [1]: 71 ± 6% | Cell growth, % of control [2]: 65 ± 4% | Effect on cell proliferation / cell death (MTT) [3]: inhibited proliferation | Cells with decreased mitochondrial membrane potential [4]: more than 50% | Effect on cell proliferation / cell death (MTT) [5]: induced death | Effect on ISRE reporter activation [6]: not STAT1-dependent transcription | Effect on expression level of STAT3 protein ([7]; MCF-7 and MDA-MB-231 cells): did not change | Effect on tyrosine phosphorylation of STAT3 [7, 18]: did not affect | FRET efficiency (1-D0/D1) [8]: approximately 12.8% | Cells with decreased mitochondrial membrane potential [9]: more than 50% | Effect on cell proliferation / cell death (MTT) [10]: induced death | PARP cleavage [11]: significant PARP cleavage | Effect on APRE reporter expression [12]: inhibited both basal and stimulated expression | FRET efficiency (1-D0/D1) [13]: ~15.2% | Annexin V binding [14]: significant increase | Annexin V binding [15]: significant increase | Effect on expression level of STAT1 protein ([16]; MCF-7 and MDA-MB-231 cells): did not change | Effect on tyrosine phosphorylation of STAT1 [16, 18]: did not affect | FRET efficiency (1-D0/D1) [17]: 90.8%

From patent publication US9540427B2, “Peptide-based stat inhibitor” (The United States of America, as represented by the …, priority 2007, dated 2017)
